Source: the M2OR odorant receptor database
The entries are a selection whose mix differs from that of the whole data set. Calls are pooled over several reports, among them a noisy single-well screen. The list shows a part of the results.

Amino acid sequences for entries named in this document (tags omitted). A change or cut given only in a name is not applied to a line headed by its entry.
UniProt Q8NGJ3: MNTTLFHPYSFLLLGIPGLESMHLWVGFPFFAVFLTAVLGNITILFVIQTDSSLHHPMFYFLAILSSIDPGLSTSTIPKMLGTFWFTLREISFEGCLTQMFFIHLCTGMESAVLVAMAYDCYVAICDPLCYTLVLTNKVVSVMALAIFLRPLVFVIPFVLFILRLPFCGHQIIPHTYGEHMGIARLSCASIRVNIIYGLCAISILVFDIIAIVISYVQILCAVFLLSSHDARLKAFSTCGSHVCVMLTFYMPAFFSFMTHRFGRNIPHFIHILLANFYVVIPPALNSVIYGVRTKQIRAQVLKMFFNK
UniProt Q8NGJ4: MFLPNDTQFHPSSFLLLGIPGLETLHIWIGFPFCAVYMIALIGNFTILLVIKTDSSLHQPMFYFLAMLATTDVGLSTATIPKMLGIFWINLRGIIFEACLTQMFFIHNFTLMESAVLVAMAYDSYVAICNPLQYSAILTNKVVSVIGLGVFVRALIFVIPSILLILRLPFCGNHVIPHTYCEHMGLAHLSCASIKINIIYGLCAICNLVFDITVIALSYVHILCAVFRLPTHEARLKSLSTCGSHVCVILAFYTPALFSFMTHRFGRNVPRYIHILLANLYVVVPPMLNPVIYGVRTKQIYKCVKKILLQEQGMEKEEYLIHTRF
UniProt Q8NGH9: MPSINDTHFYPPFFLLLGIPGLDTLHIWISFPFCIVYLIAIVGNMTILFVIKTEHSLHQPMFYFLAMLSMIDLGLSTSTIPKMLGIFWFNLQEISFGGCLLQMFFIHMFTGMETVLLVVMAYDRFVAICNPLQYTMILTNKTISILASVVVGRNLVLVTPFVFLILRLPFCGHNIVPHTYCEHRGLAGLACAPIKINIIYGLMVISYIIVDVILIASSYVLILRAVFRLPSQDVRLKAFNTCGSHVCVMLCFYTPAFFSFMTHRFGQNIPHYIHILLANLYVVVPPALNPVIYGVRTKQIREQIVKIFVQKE
UniProt Q8NH55: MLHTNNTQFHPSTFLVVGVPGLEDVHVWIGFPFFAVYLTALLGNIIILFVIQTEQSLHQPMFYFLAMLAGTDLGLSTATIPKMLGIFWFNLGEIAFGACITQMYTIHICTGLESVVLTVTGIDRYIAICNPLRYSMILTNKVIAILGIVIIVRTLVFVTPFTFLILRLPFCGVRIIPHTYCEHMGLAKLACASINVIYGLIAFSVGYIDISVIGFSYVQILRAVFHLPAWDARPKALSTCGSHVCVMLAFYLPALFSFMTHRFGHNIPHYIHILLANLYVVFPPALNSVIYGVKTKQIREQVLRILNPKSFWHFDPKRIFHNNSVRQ

Experiments:
Details in all cases: stereoisomer not certain
OR51I1 (Homo sapiens) = target: T1, OR51I1 (Homo sapiens) (UniProt Q9H343)
T1 sequence (whole entry): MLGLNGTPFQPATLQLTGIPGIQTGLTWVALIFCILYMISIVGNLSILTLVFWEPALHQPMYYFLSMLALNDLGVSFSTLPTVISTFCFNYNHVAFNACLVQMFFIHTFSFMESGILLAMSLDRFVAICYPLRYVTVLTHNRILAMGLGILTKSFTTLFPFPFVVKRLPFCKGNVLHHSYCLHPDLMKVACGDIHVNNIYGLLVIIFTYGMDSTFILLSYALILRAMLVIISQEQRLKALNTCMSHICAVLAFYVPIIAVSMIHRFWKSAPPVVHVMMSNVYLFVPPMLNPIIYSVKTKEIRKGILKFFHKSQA
Outline: (§1)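 Transient luciferase assays in mammalian cell lines were common, though methods varied by source. The values come from published papers and their supplementary material, with extra details from the original authors when needed. Responsive refers to a measured signal the original authors judged statistically different from baseline, and non-responsive (inactive) to the remainder.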

OR51M1 (Homo sapiens) = target: T2, OR51M1 (Homo sapiens) (UniProt Q9H341)
T2 sequence (whole entry): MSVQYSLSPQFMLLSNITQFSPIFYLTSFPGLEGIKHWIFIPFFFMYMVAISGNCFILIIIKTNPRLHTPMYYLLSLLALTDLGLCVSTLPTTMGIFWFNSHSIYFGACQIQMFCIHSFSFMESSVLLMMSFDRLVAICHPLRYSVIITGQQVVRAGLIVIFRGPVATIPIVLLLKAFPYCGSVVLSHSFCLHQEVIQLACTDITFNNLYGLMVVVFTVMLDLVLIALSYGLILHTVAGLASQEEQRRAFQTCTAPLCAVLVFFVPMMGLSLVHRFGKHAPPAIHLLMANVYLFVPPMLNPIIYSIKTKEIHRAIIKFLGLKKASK
Outline: as §1

OR51Q1 (Homo sapiens) = target: T3, OR51Q1 (Homo sapiens) (UniProt Q8NH59)
T3 sequence (whole entry): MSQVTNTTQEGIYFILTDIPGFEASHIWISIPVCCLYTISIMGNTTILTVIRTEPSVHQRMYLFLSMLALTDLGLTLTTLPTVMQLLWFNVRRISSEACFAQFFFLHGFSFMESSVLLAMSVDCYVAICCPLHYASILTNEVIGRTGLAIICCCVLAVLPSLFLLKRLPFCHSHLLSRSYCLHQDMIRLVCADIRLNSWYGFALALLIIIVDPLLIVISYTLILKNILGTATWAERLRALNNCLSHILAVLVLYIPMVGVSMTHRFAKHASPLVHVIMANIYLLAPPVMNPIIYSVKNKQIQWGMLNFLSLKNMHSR
Outline: as §1

OR51S1 (Homo sapiens) = target: T4, OR51S1 (Homo sapiens) (UniProt Q8NGJ8)
T4 sequence (whole entry): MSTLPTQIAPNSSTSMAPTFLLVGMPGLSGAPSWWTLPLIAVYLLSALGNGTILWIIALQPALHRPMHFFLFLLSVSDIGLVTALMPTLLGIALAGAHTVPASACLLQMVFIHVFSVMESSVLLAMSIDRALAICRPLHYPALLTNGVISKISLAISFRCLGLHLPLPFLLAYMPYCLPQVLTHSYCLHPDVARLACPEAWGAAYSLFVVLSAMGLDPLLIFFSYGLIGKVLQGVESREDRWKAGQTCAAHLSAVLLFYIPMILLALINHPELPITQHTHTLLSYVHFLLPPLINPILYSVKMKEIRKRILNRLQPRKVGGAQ
Outline: as §1

OR51T1 (Homo sapiens) = target: T5, OR51T1 (Homo sapiens) (UniProt Q8NGJ9)
T5 sequence (whole entry): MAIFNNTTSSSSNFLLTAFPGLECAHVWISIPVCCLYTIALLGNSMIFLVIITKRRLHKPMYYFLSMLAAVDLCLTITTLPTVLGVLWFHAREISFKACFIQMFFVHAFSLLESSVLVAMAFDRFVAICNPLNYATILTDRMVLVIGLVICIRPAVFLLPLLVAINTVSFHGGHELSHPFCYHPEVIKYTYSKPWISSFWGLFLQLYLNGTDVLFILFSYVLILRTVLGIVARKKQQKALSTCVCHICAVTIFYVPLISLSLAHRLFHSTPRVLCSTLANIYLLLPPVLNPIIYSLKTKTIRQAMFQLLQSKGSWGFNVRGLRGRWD
Outline: as §1

OR52A1 (Homo sapiens) = target: T6, OR52A1 (Homo sapiens) (UniProt Q9UKL2)
T6 sequence (whole entry): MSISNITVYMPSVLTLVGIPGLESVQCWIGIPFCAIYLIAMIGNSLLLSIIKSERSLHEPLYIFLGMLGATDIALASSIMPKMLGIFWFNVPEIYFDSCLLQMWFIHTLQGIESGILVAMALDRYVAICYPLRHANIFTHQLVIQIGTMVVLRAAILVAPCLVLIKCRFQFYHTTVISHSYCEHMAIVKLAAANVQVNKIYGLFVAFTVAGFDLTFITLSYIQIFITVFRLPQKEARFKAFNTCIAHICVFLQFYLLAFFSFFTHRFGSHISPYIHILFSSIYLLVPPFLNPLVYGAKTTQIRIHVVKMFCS
Outline: as §1

OR52A4P (Homo sapiens) = target: T7, OR52A4P (Homo sapiens) (UniProt A6NMU1)
T7 sequence (whole entry): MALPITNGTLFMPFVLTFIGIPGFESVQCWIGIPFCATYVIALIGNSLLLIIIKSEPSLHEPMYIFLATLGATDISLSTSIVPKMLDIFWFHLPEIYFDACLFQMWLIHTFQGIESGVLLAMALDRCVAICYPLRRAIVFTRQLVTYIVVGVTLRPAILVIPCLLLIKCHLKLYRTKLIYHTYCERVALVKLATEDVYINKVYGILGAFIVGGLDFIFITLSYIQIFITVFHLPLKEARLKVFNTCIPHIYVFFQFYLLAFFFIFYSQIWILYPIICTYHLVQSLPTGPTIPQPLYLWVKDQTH
Outline: as §1

OR52A5 (Homo sapiens) = target: T8, OR52A5 (Homo sapiens) (UniProt Q9H2C5)
T8 sequence (whole entry): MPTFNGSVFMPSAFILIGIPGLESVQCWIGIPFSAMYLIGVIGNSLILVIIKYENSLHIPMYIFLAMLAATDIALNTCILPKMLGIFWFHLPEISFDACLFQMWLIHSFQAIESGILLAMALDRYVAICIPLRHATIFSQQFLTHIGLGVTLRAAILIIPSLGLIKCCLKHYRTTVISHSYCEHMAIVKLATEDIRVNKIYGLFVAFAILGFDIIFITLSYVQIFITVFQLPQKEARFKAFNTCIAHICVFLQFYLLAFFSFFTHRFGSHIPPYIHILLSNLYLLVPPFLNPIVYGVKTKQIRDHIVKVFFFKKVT
Outline: as §1

OR52B2 (Homo sapiens) = target: T9, OR52B2 (Homo sapiens) (UniProt Q96RD2)
T9 sequence (whole entry): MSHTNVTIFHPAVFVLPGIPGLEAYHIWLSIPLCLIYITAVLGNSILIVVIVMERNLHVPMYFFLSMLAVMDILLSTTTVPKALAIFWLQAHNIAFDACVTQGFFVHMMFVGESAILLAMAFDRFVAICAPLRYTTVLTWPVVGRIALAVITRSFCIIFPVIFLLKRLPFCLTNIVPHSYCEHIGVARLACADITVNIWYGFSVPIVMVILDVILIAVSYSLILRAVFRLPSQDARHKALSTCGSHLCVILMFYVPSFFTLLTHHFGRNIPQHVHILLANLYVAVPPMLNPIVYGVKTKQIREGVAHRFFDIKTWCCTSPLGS
Outline: as §1

OR52B4 (Homo sapiens) = target: T10, OR52B4 (Homo sapiens) (UniProt Q8NGK2)
T10 sequence (whole entry): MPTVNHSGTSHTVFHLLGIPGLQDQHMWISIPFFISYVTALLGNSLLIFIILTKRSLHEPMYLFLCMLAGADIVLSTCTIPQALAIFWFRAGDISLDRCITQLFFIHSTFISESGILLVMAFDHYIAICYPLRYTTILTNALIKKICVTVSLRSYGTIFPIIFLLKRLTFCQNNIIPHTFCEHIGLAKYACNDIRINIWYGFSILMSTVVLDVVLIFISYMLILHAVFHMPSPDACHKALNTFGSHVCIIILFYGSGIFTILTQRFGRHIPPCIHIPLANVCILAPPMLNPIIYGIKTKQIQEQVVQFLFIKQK
Outline: as §1

OR52B6 (Homo sapiens) = target: T11, OR52B6 (Homo sapiens) (UniProt Q8NGF0)
T11 sequence (whole entry): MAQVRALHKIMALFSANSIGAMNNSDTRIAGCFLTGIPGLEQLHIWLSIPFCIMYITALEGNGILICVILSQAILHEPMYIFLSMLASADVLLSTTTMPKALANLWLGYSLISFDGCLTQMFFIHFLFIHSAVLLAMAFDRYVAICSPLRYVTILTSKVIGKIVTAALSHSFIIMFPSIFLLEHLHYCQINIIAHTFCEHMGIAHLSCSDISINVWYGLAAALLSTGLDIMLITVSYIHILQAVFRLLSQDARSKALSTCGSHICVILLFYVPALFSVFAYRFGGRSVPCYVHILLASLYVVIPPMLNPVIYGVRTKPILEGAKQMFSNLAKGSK
Outline: as §1

OR52E1 (Homo sapiens) = OR52E1 (Homo sapiens) (UniProt Q8NGJ3)
Outline: as §1

OR52E2 (Homo sapiens) = OR52E2 (Homo sapiens) (UniProt Q8NGJ4)
Outline: as §1

OR52E4 (Homo sapiens) = OR52E4 (Homo sapiens) (UniProt Q8NGH9)
Outline: as §1

OR52E5 (Homo sapiens) = OR52E5 (Homo sapiens) (UniProt Q8NH55)
Outline: as §1

OR51I2 (Homo sapiens) = target: T12, OR51I2 (Homo sapiens) (UniProt Q9H344)
T12 sequence (whole entry): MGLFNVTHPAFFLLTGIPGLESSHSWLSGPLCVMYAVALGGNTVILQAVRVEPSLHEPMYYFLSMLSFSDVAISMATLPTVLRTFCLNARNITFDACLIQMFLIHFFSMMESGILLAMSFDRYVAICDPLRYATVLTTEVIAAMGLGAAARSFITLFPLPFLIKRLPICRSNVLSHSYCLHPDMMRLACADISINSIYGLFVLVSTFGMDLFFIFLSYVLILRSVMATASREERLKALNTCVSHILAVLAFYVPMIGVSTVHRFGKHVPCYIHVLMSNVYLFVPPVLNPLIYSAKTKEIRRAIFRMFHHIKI
Outline: as §1

OR51L1 (Homo sapiens) = target: T13, OR51L1 (Homo sapiens) (UniProt Q8NGJ5)
T13 sequence (whole entry): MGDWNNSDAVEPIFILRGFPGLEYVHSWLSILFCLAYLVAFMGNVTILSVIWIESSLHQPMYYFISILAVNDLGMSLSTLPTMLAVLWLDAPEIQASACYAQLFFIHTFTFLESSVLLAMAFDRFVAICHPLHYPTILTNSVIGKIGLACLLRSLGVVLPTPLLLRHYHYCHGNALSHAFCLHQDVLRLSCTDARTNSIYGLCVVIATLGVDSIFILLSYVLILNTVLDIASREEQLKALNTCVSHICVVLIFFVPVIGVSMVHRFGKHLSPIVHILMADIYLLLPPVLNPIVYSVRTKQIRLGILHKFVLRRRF
Outline: as §1

OR52D1 (Homo sapiens) = target: T14, OR52D1 (Homo sapiens) (UniProt Q9H346)
T14 sequence (whole entry): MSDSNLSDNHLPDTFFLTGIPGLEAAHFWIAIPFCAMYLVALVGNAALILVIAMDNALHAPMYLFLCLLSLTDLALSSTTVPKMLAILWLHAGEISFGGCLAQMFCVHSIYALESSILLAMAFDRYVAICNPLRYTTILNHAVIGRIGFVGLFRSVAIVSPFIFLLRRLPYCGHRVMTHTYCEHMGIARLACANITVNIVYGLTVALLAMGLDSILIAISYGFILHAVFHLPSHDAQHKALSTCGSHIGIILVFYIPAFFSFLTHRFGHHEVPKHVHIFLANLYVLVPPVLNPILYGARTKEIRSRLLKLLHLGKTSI
Outline: as §1

Measured: odorant receptor agonist call;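 note: active if original authors judged signal statistically different from baseline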

CC12C=CCC1C1CCC3CC(=O)CCC3(C)C1CC2 (stereo not drawn)
not listed: OR51I2 (Homo sapiens) | OR51L1 (Homo sapiens) | OR52D1 (Homo sapiens)
inactive: all other assays above

CC=Cc1ccc(O)c(OC)c1
inactive: OR51I1 (Homo sapiens) | OR51I2 (Homo sapiens) | OR51L1 (Homo sapiens) | OR52B4 (Homo sapiens) | OR52D1 (Homo sapiens)
active: OR51S1 (Homo sapiens) | OR52A4P (Homo sapiens) | OR52A5 (Homo sapiens)

CCCCCCCCCC=O
inactive: OR51I1 (Homo sapiens) | OR51I2 (Homo sapiens) | OR51L1 (Homo sapiens) | OR51S1 (Homo sapiens) | OR52A4P (Homo sapiens) | OR52A5 (Homo sapiens) | OR52B4 (Homo sapiens)
active: OR52D1 (Homo sapiens)

O=C1CCCCCCCCCCCCCCO1
inactive: OR51I1 (Homo sapiens) | OR51I2 (Homo sapiens) | OR51L1 (Homo sapiens) | OR51S1 (Homo sapiens) | OR52A4P (Homo sapiens) | OR52A5 (Homo sapiens) | OR52B4 (Homo sapiens) | OR52D1 (Homo sapiens)

c1cnccn1
inactive: OR51I1 (Homo sapiens) | OR51I2 (Homo sapiens) | OR51L1 (Homo sapiens) | OR51S1 (Homo sapiens) | OR52A4P (Homo sapiens) | OR52A5 (Homo sapiens) | OR52B4 (Homo sapiens) | OR52D1 (Homo sapiens)

C=C(C)C1CC=C(C)C(=O)C1 (stereo not drawn)
inactive: OR51L1 (Homo sapiens)
